According to publication doi:10.1101/2025.01.26.634929:
No constants are given. Whether binding was seen depends on the method and setting. In cells and extracts the contact can be indirect. A yes stands for co-enrichment or nearness to the bait. Other partners may have been found. No binding means not detected with the bait.

By UniProt entry, the sequences of proteins in these tests, tags left out.
UniProt Q9UKV8, whole entry: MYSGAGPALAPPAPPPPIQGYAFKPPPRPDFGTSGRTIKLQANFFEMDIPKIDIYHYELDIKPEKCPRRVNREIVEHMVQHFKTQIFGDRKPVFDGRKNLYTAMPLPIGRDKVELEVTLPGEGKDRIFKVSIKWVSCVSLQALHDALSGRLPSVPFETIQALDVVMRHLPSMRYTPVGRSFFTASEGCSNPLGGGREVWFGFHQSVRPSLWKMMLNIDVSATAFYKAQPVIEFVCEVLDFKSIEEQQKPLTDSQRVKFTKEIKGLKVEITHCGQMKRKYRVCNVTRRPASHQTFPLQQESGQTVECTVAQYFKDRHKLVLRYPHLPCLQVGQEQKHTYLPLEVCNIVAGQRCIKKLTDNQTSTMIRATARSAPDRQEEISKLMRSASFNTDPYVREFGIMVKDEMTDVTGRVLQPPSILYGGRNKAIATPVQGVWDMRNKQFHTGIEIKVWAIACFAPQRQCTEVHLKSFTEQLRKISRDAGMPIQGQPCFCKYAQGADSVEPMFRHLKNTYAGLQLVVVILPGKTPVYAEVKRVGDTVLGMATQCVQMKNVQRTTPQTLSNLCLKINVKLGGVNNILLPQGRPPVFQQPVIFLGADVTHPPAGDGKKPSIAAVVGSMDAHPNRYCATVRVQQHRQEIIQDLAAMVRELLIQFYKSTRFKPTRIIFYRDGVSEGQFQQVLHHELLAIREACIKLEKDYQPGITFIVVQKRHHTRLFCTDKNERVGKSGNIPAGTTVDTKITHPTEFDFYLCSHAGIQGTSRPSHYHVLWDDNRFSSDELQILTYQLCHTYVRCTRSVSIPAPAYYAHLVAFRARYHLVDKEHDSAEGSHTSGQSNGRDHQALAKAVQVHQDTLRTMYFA

Biological target: AGO2 fused with C-terminal Flag- and HA-epitope tags (e-AGO2) (UniProt Q9UKV8)
Test: affinity purification with mass spectrometry

- binding: no binding
Substance: HNRNPK (from UniProt P61978 1-463)
